Results published in ChEMBL document CHEMBL4513141, “CO-ADD screening of NIH (USA) - Clinical Collection” (2021).
The other results are listed elsewhere or left out. Potency and affinity values are given separately.

The molecules below were run on Acinetobacter baumannii. Conditions: Concentration 20 uM; ASSAY_TEST Inhibition of Bacterial Growth; detection method Absorption (OD600); MEDIA CAMHB; plate type 384well; NBS; CORNING #3640; time 18 hr.
Work on `O=c1c(O[C@@H]2O[C@H](CO)[C@@H](O)[C@H](O)[C@H]2O)c(-c2ccc(O)c(O)c2)oc2cc(O)cc(O)c12` [ISOQUERCETIN] yielded an Inhibition of 25.15%.
Work on `CCCCNc1cc(C(=O)O)cc(S(N)(=O)=O)c1Oc1ccccc1` [BUMETANIDE] yielded an Inhibition of 31.98%.
`Cl.NC12CC3CC(CC(C3)C1)C2` [AMANTADINE HYDROCHLORIDE] showed an Inhibition of 16.01%.
For `CCC(=C(c1ccccc1)c1ccc(OCCN(C)C)cc1)c1ccccc1`, the Inhibition was 8.59%.
`CC(=O)O[C@]1(C(C)=O)CC[C@H]2[C@@H]3C[C@H](C)C4=CC(=O)CC[C@]4(C)[C@H]3CC[C@@]21C` [MEDROXYPROGESTERONE ACETATE] showed an Inhibition of 28.19%.
Work on `C[C@@H]1C[C@H]2[C@@H]3C[C@H](F)C4=CC(=O)C(Cl)=C[C@]4(C)[C@@]3(F)[C@@H](O)C[C@]2(C)[C@@]1(O)C(=O)CO` [HALOMETASONE] yielded an Inhibition of 11.85%.
With `CC(=O)CCCCn1cnc2c1c(=O)n(C)c(=O)n2C` [LOMIFYLLINE] the Inhibition was 29.93%.
Work on `CC(=O)OCC(=O)NCCCOc1cccc(CN2CCCCC2)c1.Cl` [ROXATIDINE ACETATE HYDROCHLORIDE] yielded an Inhibition of 13.84%.
For `CC1(C)S[C@@H]2[C@H](/N=C/N3CCCCCC3)C(=O)N2[C@H]1C(=O)O` [AMDINOCILLIN], the Inhibition was 29.39%.
`Cc1cc2c(s1)Nc1ccccc1N=C2N1CCN(C)CC1` [OLANZAPINE] was tested, and the Inhibition was 19.99%.
Molecule `CCN(CC)CCOC(=O)c1ccc(N)cc1.Cl` [PROCAINE HYDROCHLORIDE] has an Inhibition of 24.17%.
`O=C(O)c1cc(/N=N/c2ccc(S(=O)(=O)Nc3ccccn3)cc2)ccc1O` [SULFASALAZINE] showed an Inhibition of 13.81%.
`COc1ccc(OC)c(C(O)CNC(=O)CN)c1.Cl` (centres undefined) [MIDODRINE HYDROCHLORIDE] showed an Inhibition of 26.31%.
Molecule `CC(N)C12CC3CC(CC(C3)C1)C2.Cl` (centres undefined) [RIMANTADINE HYDROCHLORIDE] has an Inhibition of 23.31%.
`O=C1c2c(O)cc(O)cc2O[C@H](c2ccc(O)c(O)c2)[C@@H]1O` showed an Inhibition of 15.13%.
Molecule `CN(C)CCC(c1ccc(Cl)cc1)c1ccccn1.O=C(O)/C=C\C(=O)O` (centres undefined) [CHLORPHENIRAMINE MALEATE] has an Inhibition of 7.38%.
In the case of `NC(Cc1cc(I)c(Oc2ccc(O)c(I)c2)c(I)c1)C(=O)O` (centres undefined) [RATHYRONINE], the Inhibition was 30.68%.
Work on `Cc1ncc([N+](=O)[O-])n1CC(C)O` (centres undefined) [SECNIDAZOLE] yielded an Inhibition of 28.53%.
Work on `Cc1nc2ccccn2c(=O)c1CCN1CCC(C(=O)c2ccc(F)cc2)CC1` [PIRENPERONE] yielded an Inhibition of 8.81%.
For `CSc1nc2cc(Cl)c(Oc3cccc(Cl)c3Cl)cc2[nH]1` [TRICLABENDAZOLE], the Inhibition was 14.42%.
For `O=C(CCNNC(=O)c1ccncc1)NCc1ccccc1` [NIALAMIDE], the Inhibition was 27.51%.
In the case of `NC(=O)c1cnccn1` [PYRAZINAMIDE], the Inhibition was 18.65%.
In the case of `CN1C(=O)CC[C@H]1c1cccnc1` [COTININE], the Inhibition was 6.43%.
`CCCOc1ccc(C(=O)OCCN(CC)CC)cc1N.Cl` [PROPARACAINE HYDROCHLORIDE] gave an Inhibition of 11.17%.
With `NS(=O)(=O)c1cc2c(cc1C(F)(F)F)NCNS2(=O)=O` [HYDROFLUMETHIAZIDE] the Inhibition was 30.28%.
In the case of `CN1CCC(=C2c3ccccc3C=Cc3ccccc32)CC1.Cl` [CYPROHEPTADINE HYDROCHLORIDE], the Inhibition was 16.8%.
`CS(=O)(=O)OCCCCOS(C)(=O)=O` [BUSULFAN] showed an Inhibition of 32.17%.
`CNCCCC12CCC(c3ccccc31)c1ccccc12.Cl` [MAPROTILINE HYDROCHLORIDE] showed an Inhibition of 20.38%.
For `CC(=O)O.CNC(=N)NCCC[C@H](N)C(=O)O` [TILARGININE ACETATE], the Inhibition was 7.2%.
For `CC(=O)NS(=O)(=O)c1ccc(N)cc1` [SULFACETAMIDE], the Inhibition was 21.15%.
`Cc1cn([C@H]2C=C[C@@H](CO)O2)c(=O)[nH]c1=O` [STAVUDINE] gave an Inhibition of 24.61%.
With `CCN(CC)CC(=O)Nc1c(C)cccc1C` [LIDOCAINE] the Inhibition was 23.46%.
For `OCCN(CCO)c1nc(N2CCCCC2)c2nc(N(CCO)CCO)nc(N3CCCCC3)c2n1` [DIPYRIDAMOLE], the Inhibition was 12.25%.
`COCCCC/C(=N\OCCN)c1ccc(C(F)(F)F)cc1.O=C(O)/C=C\C(=O)O` [FLUVOXAMINE MALEATE] was tested, and the Inhibition was 21.08%.
Work on `Nc1nc(Cl)nc2c1ncn2[C@@H]1O[C@H](CO)[C@@H](O)[C@H]1O` yielded an Inhibition of 9.97%.
Molecule `O=c1c(O[C@@H]2O[C@H](CO)[C@H](O)[C@H](O)[C@H]2O)c(-c2ccc(O)c(O)c2)oc2cc(O)cc(O)c12` [HYPEROSIDE] has an Inhibition of 28.71%.
Work on `C[C@]12CC[C@@H]3c4ccc(OS(=O)(=O)[O-])cc4CC[C@H]3[C@@H]1CCC2=O.[Na+]` [ESTRONE SODIUM SULFATE] yielded an Inhibition of 14.02%.
`CC(C)[N+](C)(CCOC(=O)C1c2ccccc2Oc2ccccc21)C(C)C.[Br-]` [PROPANTHELINE BROMIDE] showed an Inhibition of 15.49%.
For `CCOC(=O)[C@H](CCc1ccccc1)N[C@@H](C)C(=O)N1Cc2ccccc2C[C@H]1C(=O)O.Cl` [QUINAPRIL HYDROCHLORIDE], the Inhibition was 16.28%.
Molecule `C[C@@H](O)[C@H]1C(=O)N2C(C(=O)O)=C(S[C@@H]3CN[C@H](C(=O)N(C)C)C3)[C@H](C)[C@H]12` [MEROPENEM] has an Inhibition of 10.36%.
`CS(=O)(=O)O.Cc1c(O)cccc1C(=O)N[C@@H](CSc1ccccc1)[C@H](O)CN1C[C@H]2CCCC[C@H]2C[C@H]1C(=O)NC(C)(C)C` [NELFINAVIR MESYLATE] gave an Inhibition of 15.7%.
In the case of `CCC[C@@H]1C[C@@H](C(=O)N[C@@H]([C@H]2O[C@H](SC)[C@H](O)[C@@H](O)[C@H]2O)[C@@H](C)O)N(C)C1.Cl.O` [LINCOMYCIN HYDROCHLORIDE], the Inhibition was 17.64%.
With `COc1c2occc2cc2ccc(=O)oc12` [METHOXSALEN] the Inhibition was 12.68%.
`N#Cc1ccc(C(c2ccc(C#N)cc2)n2cncn2)cc1` [LETROZOLE] showed an Inhibition of 22.09%.
